Values quoted from earlier work as cited in patent publication US20250161288A1, “MULTIMERIZER PHARMACEUTICAL COMPOSITIONS” (PONCE THERAPEUTICS, INC., priority 2022, published 2025).
At least one read-out could not be matched to a standard name with certainty.

Details: class IV characterisation; cited from earlier work

## CC[C@H](C(=O)N1CCCC[C@H]1C(=O)O[C@H](CCc1ccc(OC)c(OC)c1)c1cccc(OCC(=O)NCCNC(=O)COc2cccc([C@@H](CCc3ccc(OC)c(OC)c3)OC(=O)[C@@H]3CCCCN3C(=O)[C@@H](CC)c3cc(OC)c(OC)c(OC)c3)c2)c1)c1cc(OC)c(OC)c(OC)c1 [Rimiducid, rimiducid]
  bioavailability: dose administered by a non-intravenous route absorbed, compared to an intravenous dose: less than 90%
  gastrointestinal permeability: less than 10^−5 centimeters per second
